Measured values taken from the supplement of paper PMC10849652.
The other results are listed elsewhere or left out.

By UniProt entry, the sequences of proteins in these tests, tags left out. Where a name states a change or a piece, a line headed by the entry shows the natural chain unless it says otherwise.
UniProt P25208: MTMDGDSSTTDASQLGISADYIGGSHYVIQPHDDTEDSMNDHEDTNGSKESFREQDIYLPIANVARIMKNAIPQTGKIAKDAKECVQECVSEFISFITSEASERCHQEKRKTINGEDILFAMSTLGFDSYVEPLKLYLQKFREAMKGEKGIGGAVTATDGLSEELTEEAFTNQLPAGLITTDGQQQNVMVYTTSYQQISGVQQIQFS
UniProt P35240: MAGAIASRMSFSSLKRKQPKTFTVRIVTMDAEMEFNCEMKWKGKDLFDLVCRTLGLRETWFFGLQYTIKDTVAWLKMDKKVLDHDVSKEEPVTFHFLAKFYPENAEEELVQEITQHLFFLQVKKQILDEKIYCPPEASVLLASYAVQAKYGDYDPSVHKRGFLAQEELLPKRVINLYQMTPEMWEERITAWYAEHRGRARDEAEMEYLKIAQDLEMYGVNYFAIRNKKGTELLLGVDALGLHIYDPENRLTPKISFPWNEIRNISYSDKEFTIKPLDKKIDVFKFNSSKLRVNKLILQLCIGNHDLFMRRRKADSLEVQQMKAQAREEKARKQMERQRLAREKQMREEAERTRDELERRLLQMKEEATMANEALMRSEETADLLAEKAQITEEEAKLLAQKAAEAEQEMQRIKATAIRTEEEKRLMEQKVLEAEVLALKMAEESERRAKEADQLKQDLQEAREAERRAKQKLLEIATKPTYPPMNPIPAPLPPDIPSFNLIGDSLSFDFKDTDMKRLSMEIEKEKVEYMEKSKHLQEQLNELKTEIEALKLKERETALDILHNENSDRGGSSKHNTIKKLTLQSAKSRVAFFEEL
UniProt P49116: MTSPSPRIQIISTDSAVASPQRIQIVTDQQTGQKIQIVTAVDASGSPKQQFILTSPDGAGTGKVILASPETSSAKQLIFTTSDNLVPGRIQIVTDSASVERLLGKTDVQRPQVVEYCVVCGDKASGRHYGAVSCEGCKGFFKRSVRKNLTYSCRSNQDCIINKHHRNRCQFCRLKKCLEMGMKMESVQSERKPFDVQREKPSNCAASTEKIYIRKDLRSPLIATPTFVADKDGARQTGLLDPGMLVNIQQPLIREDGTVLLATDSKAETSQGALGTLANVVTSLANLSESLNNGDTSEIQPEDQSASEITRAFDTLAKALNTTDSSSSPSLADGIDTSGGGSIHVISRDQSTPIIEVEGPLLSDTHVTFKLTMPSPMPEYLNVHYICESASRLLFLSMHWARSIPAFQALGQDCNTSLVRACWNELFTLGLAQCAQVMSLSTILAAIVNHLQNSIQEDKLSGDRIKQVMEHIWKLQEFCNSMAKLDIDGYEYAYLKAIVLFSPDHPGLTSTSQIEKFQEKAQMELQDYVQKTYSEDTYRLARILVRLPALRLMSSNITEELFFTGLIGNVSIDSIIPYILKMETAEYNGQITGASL
UniProt O75323: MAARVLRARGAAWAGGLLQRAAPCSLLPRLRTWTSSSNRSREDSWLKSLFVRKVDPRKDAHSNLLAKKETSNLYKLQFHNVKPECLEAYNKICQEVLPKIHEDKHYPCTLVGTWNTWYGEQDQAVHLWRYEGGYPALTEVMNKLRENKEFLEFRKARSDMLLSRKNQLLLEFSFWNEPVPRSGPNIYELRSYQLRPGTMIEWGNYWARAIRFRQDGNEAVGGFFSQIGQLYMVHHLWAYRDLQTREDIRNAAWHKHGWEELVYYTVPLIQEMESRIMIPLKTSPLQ
UniProt Q86WQ0: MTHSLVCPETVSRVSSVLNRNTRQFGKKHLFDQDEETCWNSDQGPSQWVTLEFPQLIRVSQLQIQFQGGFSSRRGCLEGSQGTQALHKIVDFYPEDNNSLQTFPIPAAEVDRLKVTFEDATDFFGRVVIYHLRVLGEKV
UniProt Q9H9Q4: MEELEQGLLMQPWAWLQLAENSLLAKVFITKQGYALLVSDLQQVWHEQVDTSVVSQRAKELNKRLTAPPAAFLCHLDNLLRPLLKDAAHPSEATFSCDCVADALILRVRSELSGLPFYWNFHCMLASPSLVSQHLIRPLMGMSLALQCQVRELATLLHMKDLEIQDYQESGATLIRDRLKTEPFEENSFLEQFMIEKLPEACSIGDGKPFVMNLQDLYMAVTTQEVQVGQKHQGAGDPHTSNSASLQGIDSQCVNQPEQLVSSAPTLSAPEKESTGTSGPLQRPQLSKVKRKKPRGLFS
UniProt Q9Y3C1: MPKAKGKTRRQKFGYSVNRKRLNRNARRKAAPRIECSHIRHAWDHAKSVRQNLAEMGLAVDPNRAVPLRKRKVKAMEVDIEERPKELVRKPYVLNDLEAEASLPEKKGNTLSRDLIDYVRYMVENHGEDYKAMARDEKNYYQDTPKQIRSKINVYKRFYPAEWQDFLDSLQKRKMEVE
UniProt O75414: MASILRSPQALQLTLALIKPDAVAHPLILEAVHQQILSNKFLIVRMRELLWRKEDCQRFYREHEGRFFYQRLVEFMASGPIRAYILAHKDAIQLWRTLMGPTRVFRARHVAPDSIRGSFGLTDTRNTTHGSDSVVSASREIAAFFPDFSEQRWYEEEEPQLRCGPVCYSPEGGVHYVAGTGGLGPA
UniProt Q5JPE7: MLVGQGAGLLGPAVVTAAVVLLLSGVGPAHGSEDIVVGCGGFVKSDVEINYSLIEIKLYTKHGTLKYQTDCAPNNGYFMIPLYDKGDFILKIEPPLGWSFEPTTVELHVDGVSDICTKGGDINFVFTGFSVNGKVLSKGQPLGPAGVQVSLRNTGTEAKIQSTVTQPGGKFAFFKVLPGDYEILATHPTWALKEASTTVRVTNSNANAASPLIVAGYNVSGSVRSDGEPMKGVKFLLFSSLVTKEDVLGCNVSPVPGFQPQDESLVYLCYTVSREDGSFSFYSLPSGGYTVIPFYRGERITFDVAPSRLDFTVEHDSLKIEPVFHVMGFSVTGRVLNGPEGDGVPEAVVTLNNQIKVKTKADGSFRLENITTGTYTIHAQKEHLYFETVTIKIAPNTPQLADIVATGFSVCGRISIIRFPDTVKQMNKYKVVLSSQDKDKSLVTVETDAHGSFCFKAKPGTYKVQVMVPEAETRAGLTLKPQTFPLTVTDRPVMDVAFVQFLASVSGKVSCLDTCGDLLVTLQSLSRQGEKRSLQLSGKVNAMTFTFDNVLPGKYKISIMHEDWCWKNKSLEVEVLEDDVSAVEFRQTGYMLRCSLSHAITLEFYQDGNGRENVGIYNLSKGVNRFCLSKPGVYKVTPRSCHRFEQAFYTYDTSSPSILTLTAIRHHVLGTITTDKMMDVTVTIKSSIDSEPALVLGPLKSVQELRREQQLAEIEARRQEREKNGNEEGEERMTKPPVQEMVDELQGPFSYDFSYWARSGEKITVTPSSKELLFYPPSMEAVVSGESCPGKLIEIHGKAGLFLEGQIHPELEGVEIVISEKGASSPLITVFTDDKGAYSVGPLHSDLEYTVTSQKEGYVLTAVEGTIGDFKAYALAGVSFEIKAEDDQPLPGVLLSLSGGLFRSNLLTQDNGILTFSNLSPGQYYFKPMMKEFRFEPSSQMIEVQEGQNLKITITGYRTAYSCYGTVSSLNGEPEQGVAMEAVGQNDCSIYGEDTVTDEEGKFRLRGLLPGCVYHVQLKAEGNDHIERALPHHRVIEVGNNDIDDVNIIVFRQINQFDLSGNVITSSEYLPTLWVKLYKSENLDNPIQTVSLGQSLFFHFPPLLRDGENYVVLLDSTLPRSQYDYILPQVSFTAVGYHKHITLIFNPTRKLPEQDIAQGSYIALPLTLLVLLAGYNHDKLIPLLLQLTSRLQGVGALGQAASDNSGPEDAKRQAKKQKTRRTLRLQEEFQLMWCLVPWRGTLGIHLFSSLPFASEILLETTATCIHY
UniProt Q8N8Q9: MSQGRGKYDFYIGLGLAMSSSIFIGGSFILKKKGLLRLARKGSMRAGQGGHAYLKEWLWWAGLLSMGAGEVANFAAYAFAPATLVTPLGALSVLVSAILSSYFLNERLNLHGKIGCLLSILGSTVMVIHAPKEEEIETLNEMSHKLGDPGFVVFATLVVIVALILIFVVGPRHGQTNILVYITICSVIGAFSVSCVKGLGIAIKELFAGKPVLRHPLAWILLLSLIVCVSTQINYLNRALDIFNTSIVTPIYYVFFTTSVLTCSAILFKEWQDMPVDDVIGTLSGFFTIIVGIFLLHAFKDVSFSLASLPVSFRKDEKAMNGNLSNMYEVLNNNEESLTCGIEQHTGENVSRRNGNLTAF
UniProt Q8TAT6: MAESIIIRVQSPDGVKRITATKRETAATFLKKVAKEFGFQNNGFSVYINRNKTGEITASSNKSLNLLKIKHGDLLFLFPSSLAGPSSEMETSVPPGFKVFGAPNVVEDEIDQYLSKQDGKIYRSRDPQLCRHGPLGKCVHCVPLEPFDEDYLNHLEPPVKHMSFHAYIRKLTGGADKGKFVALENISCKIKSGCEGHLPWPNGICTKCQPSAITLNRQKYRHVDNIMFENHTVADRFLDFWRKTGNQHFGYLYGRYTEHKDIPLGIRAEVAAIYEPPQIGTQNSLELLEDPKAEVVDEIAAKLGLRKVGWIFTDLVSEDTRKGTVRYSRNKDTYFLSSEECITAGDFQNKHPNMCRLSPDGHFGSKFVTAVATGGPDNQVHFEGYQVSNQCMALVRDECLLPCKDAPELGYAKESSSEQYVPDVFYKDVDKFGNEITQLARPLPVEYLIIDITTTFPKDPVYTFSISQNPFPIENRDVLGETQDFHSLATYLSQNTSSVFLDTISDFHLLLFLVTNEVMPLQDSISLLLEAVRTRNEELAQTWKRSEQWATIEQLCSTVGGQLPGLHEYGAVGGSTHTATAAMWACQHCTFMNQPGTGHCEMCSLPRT
UniProt Q92636: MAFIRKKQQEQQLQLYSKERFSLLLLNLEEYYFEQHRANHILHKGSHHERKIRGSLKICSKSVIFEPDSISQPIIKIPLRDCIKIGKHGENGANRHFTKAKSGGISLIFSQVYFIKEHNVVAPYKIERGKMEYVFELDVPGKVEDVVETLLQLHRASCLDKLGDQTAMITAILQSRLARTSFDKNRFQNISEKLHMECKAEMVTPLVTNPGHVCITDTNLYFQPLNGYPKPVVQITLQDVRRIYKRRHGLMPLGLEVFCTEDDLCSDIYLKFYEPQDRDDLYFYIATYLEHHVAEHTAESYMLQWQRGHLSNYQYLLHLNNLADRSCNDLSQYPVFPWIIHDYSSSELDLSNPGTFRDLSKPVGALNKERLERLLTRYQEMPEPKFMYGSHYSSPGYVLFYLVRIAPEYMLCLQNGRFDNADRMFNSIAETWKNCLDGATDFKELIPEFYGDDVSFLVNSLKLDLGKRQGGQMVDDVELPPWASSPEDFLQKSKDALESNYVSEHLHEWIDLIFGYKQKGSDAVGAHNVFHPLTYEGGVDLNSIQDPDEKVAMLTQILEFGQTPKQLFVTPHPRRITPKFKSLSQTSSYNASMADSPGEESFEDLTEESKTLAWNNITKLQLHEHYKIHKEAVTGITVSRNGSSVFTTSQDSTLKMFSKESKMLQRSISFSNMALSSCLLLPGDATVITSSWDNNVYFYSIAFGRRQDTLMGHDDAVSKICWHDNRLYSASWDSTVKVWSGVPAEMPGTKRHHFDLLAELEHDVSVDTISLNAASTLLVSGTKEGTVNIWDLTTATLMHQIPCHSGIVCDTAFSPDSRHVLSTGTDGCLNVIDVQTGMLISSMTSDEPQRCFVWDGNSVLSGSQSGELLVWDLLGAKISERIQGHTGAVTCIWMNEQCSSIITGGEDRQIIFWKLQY
UniProt Q9ULX3: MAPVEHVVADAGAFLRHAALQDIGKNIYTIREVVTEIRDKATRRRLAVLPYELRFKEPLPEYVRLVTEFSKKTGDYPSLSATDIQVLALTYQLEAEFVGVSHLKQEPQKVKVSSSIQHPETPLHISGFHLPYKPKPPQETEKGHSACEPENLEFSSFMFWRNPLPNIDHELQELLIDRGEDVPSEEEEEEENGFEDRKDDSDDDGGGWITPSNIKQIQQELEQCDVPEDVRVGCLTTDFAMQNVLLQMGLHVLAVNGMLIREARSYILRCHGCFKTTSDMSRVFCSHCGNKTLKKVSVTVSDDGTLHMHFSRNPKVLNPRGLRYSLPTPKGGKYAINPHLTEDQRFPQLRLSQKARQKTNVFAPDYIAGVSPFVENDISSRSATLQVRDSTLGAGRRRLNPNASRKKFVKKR
UniProt P16083: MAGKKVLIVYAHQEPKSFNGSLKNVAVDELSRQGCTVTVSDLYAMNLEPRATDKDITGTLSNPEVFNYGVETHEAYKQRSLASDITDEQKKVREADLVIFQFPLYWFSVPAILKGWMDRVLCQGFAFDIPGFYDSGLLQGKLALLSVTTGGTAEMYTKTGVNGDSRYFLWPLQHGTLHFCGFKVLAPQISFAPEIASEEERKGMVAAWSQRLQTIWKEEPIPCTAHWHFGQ
UniProt Q8TDX7: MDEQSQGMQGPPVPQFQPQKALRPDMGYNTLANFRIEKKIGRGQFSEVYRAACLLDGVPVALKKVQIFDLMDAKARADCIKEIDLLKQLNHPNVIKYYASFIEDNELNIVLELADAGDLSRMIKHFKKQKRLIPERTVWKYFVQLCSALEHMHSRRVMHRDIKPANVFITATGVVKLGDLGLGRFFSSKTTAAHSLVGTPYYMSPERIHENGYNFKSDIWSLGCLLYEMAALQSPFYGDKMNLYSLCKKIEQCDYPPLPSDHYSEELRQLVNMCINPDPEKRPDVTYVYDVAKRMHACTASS

Assays:
Assay in all cases: log2 fold change, soluble protein after heating vs DMSO (PISA); higher = thermal stabilisation; K562 cells, 10 uM, 30 min; active = over 0.2 and 3.5 SD of the protein, either way, in both replicates (recomputed)
[1] = compound: COC1=CC=C(C=C1)CN2C=CC3=C2C=C(C=C3)C(=O)NO
Method in brief: (§1)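 Values are thermal stability changes relative to control samples and are taken from duplicates. They are stated as log2 fold changes. Before quantification by TMTpro 16plex LC-MS/MS with equalised channel sums, K562 cells at 2×10^6 cells/mL were treated with 10 μM compound for 30 min, heated in aliquots for 3 min across 48°C-58°C, pooled, extracted in PBS with 0.5% NP-40 at 4°C, and centrifuged at 21,000xg for 90 min to give the soluble supernatant.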

[2] = compound: CON(C)C(=O)N1N=C(c2cc(F)ccc2F)S[C@@]1(CCCN)c1ccccc1 [filanesib]
Method in brief: as §1

[3] = compound: CO[C@H]1C[C@@H]2CC[C@@H](C)[C@@](O)(O2)C(=O)C(=O)N2CCCC[C@H]2C(=O)O[C@H]([C@H](C)C[C@@H]2CC[C@H](n3cnnn3)[C@H](OC)C2)CC(=O)[C@H](C)/C=C(\C)[C@@H](O)[C@@H](OC)C(=O)[C@H](C)C[C@H](C)/C=C/C=C/C=C/1C [zotarolimus]
Method in brief: as §1

[4] = compound: COc1cc(C(=O)O)ccc1NC(=O)[C@@H]1N[C@@H](CC(C)(C)C)[C@](C#N)(c2ccc(Cl)cc2F)[C@H]1c1cccc(Cl)c1F [idasanutlin]
Method in brief: as §1

[5] = compound: COc1cc(Nc2ncc3c(n2)-c2ccc(Cl)cc2C(c2c(F)cccc2OC)=NC3)ccc1C(=O)O [alisertib]
Method in brief: as §1

[6] = compound: COc1cc2nc(-c3cc(F)ccc3O)nc(N[C@@H]3CNC[C@H]3C(C)(C)O)c2cc1OC
Method in brief: as §1

[7] = compound: COc1cc2ncnc(Nc3ccc(F)c(Cl)c3)c2cc1OCCCN1CCOCC1 [gefitinib]
Method in brief: as §1

[8] = compound: COc1cccc2cc(-c3nc([C@H]4CC[C@H](C(=O)O)CC4)n4ncnc(N)c34)[nH]c12
Method in brief: as §1

[9] = compound: CS(=O)(=O)CCNCc1ccc(-c2ccc3ncnc(Nc4ccc(OCc5cccc(F)c5)c(Cl)c4)c3c2)o1 [lapatinib]
Method in brief: as §1

[10] = compound: CS(=O)(=O)N1CCN(Cc2cc3nc(-c4cccc5[nH]ncc45)nc(N4CCOCC4)c3s2)CC1 [pictilisib]
Method in brief: as §1

Target | log2 fold change [1] | log2 fold change [2] | log2 fold change [3] | log2 fold change [4] | log2 fold change [5] | log2 fold change [6] | log2 fold change [7] | log2 fold change [8] | log2 fold change [9] | log2 fold change [10]
NFYB (UniProt P25208) | inactive: 0.245 | inactive: -0.036 | inactive: -0.024 | inactive: 0.066 | inactive: -0.097 | inactive: -0.047 | inactive: 0.039 | inactive: 0.02 | inactive: 0.078 | inactive: -0.155
NOMO3 (UniProt P69849) | inactive: -0.203 | inactive: 0.221 | – | – | – | – | – | – | – | –
NF2 (UniProt P35240) | inactive: -0.006 | inactive: -0.036 | inactive: 0.018 | inactive: 0.042 | inactive: -0.119 | inactive: 0.021 | inactive: 0.123 | inactive: 0.016 | inactive: -0.029 | inactive: -0.044
NMT2 (UniProt O60551) | inactive: -0.064 | inactive: -0.018 | inactive: 0.019 | inactive: -0.062 | inactive: -0.096 | inactive: 0.082 | inactive: -0.069 | inactive: -0.046 | inactive: -0.047 | inactive: 0.087
NR2C2 isoform 2 (UniProt P49116) | inactive: 0.026 | inactive: 0.019 | inactive: 0.055 | inactive: 0.041 | inactive: -0.173 | inactive: 0.028 | inactive: -0.052 | inactive: 0.084 | inactive: -0.004 | inactive: 0.019
NELFB isoform 2 (UniProt Q8WX92) | inactive: 0.01 | inactive: 0.046 | inactive: 0.019 | inactive: -0.026 | inactive: -0.007 | inactive: 0.085 | inactive: -0.006 | inactive: -0.02 | inactive: -0.029 | inactive: 0.141
NIPSNAP2 (UniProt O75323) | inactive: 0.074 | inactive: -0.065 | inactive: 0.008 | inactive: -0.022 | inactive: 0.003 | inactive: 0.007 | inactive: 0.045 | inactive: -0.038 | active: 0.224 | inactive: 0.079
NFIA isoform 4 (UniProt Q12857) | inactive: -0.004 | inactive: 0.06 | inactive: -0.04 | inactive: -0.017 | inactive: -0.072 | inactive: -0.004 | inactive: 0.023 | inactive: 0.036 | inactive: 0.003 | inactive: 0.072
NR2C2AP isoform 2 (UniProt Q86WQ0) | inactive: 0.101 | inactive: 0.01 | inactive: -0.014 | inactive: -0.062 | inactive: -0.066 | inactive: -0.034 | inactive: -0.01 | inactive: 0.093 | inactive: -0.011 | inactive: 0.08
NIF3L1 (UniProt Q9GZT8) | inactive: -0.067 | inactive: 0.041 | inactive: -0.019 | inactive: 0.036 | inactive: -0.032 | inactive: 0.032 | inactive: -0.021 | inactive: 0.054 | inactive: -0.034 | inactive: 0.031
NFKBIE (UniProt O00221) | inactive: 0.024 | inactive: -0.093 | inactive: -0.01 | inactive: 0.044 | inactive: 0.207 | inactive: 0.026 | inactive: -0.019 | inactive: 0.02 | inactive: 0.071 | inactive: -0.018
NFKBIB (UniProt Q15653) | inactive: 0.06 | inactive: 0.007 | inactive: 0.053 | inactive: -0.064 | inactive: -0.098 | inactive: -0.005 | inactive: -0.008 | inactive: -0.037 | inactive: 0.005 | inactive: -0.006
NHEJ1 (UniProt Q9H9Q4) | inactive: -0.215 | inactive: -0.009 | inactive: -0.004 | inactive: -0.168 | inactive: 0.094 | inactive: -0.183 | inactive: 0.018 | inactive: 0.108 | inactive: 0.218 | inactive: -0.147
NOP16 (UniProt Q9Y3C1) | inactive: -0.036 | inactive: 0.638 | inactive: 0.008 | inactive: 0.17 | inactive: -0.012 | inactive: -0.033 | inactive: -0.065 | inactive: -0.09 | inactive: 0.174 | inactive: 0.063
NME6 (UniProt O75414) | inactive: 0.02 | inactive: -0.057 | inactive: -0.063 | inactive: -0.05 | inactive: -0.052 | inactive: 0.011 | inactive: 0.019 | inactive: 0.022 | inactive: -0.051 | inactive: 0
NOMO2 (UniProt Q5JPE7) | inactive: -0.006 | inactive: -0.025 | inactive: 0.024 | inactive: -0.031 | inactive: -0.058 | inactive: -0.035 | inactive: -0.002 | inactive: -0.003 | inactive: 0.002 | inactive: 0.125
NOP2 isoform 4 (UniProt P46087) | inactive: -0.053 | inactive: 0.651 | inactive: 0.118 | inactive: 0.419 | inactive: -0.065 | inactive: 0.375 | inactive: -0.065 | inactive: -0.118 | inactive: 0.456 | inactive: -0.039
NIPA2 (UniProt Q8N8Q9) | inactive: -0.033 | inactive: -0.024 | inactive: -0.109 | inactive: 0.016 | inactive: 0.002 | inactive: 0.015 | inactive: -0.044 | inactive: 0.018 | inactive: 0.031 | inactive: 0.011
NPLOC4 isoform 2 (UniProt Q8TAT6) | inactive: 0.055 | inactive: -0.067 | inactive: -0.036 | inactive: -0.063 | inactive: -0.086 | inactive: 0.027 | inactive: 0.025 | inactive: 0.019 | inactive: -0.02 | inactive: -0.015
NNT (UniProt Q13423) | inactive: -0.008 | inactive: -0.08 | inactive: 0.015 | inactive: -0.076 | inactive: -0.041 | inactive: 0.037 | inactive: 0.016 | inactive: 0.031 | inactive: -0.031 | inactive: -0.01
NSMAF (UniProt Q92636) | inactive: 0.046 | inactive: -0.025 | inactive: 0.014 | inactive: -0.004 | inactive: -0.037 | inactive: 0.064 | inactive: -0.02 | inactive: 0.028 | inactive: 0.022 | inactive: 0.036
NMD3 (UniProt Q96D46) | inactive: 0.004 | inactive: -0.221 | inactive: 0.008 | inactive: -0.095 | inactive: -0.034 | inactive: 0.108 | inactive: 0.007 | inactive: 0.016 | inactive: 0 | inactive: 0.089
NOL11 (UniProt Q9H8H0) | inactive: -0.029 | inactive: 0 | inactive: 0.005 | inactive: -0.046 | inactive: -0.017 | inactive: 0.067 | inactive: -0.008 | inactive: 0.056 | inactive: 0.005 | inactive: 0.025
NELFE isoform 3 (UniProt P18615) | inactive: -0.002 | inactive: -0.006 | inactive: -0.048 | inactive: 0.064 | inactive: -0.008 | inactive: -0.014 | inactive: -0.006 | inactive: 0.012 | inactive: -0.006 | inactive: 0.193
NOB1 (UniProt Q9ULX3) | inactive: 0.16 | inactive: 0.001 | inactive: 0.026 | inactive: 0.068 | inactive: -0.14 | inactive: 0.044 | inactive: 0.01 | inactive: -0.13 | inactive: 0.045 | inactive: -0.042
NSDHL (UniProt Q15738) | inactive: 0.006 | inactive: -0.11 | inactive: 0.04 | inactive: 0.208 | inactive: 0.033 | inactive: -0.062 | inactive: 0.021 | inactive: 0 | inactive: 0.185 | inactive: 0.023
NISCH (UniProt Q9Y2I1) | inactive: -0.008 | inactive: -0.029 | inactive: -0.022 | inactive: -0.015 | inactive: 0.023 | inactive: -0.119 | inactive: -0.014 | inactive: 0.106 | inactive: 0.041 | inactive: -0.061
NQO2 (UniProt P16083) | inactive: -0.063 | inactive: -0.028 | inactive: 0.019 | inactive: -0.013 | inactive: -0.055 | inactive: 0.039 | inactive: -0.008 | inactive: 0.087 | inactive: -0.026 | inactive: -0.023
NEK7 (UniProt Q8TDX7) | inactive: -0.07 | inactive: 0.011 | inactive: 0.032 | inactive: -0.014 | inactive: -0.05 | inactive: -0.019 | inactive: -0.017 | inactive: -0.029 | inactive: 0 | inactive: -0.067
NIBAN2 (UniProt Q96TA1) | inactive: -0.057 | inactive: 0.011 | inactive: -0.016 | inactive: -0.011 | inactive: -0.04 | inactive: 0.072 | inactive: 0.016 | inactive: 0.004 | inactive: -0.019 | inactive: 0.05

Full records from above. Values in the order: log2 fold change [1]	log2 fold change [2]	log2 fold change [3]	log2 fold change [4]	log2 fold change [5]	log2 fold change [6]	log2 fold change [7]	log2 fold change [8]	log2 fold change [9]	log2 fold change [10]
NELFE isoform 3 (UniProt P18615) in the list: inactive: -0.002	inactive: -0.006	inactive: -0.048	inactive: 0.064	inactive: -0.008	inactive: -0.014	inactive: -0.006	inactive: 0.012	inactive: -0.006	inactive: 0.193
NF2 (UniProt P35240) in the list: inactive: -0.006	inactive: -0.036	inactive: 0.018	inactive: 0.042	inactive: -0.119	inactive: 0.021	inactive: 0.123	inactive: 0.016	inactive: -0.029	inactive: -0.044
